In paper PMC5386674:
No constants are given. Whether binding was seen depends on the method and setting. In cells and extracts the contact can be indirect. Some binding calls cover weakened binding; strength is not graded here.

Sequences of proteins named here, by UniProt entry; tags and fusion partners are left off.
UniProt Q13485: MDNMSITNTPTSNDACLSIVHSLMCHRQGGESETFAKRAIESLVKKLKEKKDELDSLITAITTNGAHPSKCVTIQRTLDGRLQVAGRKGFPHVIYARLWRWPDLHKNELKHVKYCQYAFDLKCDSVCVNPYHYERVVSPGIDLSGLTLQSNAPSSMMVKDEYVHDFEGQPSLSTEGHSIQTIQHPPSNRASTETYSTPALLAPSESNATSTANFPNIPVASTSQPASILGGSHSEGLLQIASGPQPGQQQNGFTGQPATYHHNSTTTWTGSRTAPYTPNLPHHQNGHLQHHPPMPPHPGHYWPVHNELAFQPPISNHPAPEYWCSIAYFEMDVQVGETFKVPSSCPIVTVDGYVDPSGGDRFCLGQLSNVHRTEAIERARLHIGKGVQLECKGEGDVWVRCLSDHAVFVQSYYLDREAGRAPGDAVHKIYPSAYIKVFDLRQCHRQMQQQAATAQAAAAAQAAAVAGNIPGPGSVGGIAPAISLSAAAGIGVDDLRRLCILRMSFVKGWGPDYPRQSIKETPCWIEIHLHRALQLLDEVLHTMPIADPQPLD

Target: T1, WWOX (WW domain-containing oxidoreductase), endogenous human (human (endogenous in THP-1, U937, SK-N-SH, Jurkat, MCF7)) (UniProt Q9NZC7)
T1 sequence: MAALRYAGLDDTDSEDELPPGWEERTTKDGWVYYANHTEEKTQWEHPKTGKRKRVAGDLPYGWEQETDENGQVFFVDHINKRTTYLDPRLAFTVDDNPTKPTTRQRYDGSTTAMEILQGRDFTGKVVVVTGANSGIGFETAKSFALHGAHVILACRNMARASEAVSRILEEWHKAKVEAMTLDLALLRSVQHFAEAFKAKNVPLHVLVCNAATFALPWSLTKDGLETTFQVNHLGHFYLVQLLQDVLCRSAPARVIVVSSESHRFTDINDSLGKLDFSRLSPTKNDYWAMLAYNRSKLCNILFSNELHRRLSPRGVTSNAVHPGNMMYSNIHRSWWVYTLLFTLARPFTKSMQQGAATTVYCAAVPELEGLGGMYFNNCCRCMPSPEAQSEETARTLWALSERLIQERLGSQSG
Test: co-IP; MCF7 cells treated with hyaluronidase PH-20 for 1 hr or hyaluronidase-degraded HA; precipitating antibody not stated

binding: binds
Substance: Smad4, endogenous human (from UniProt Q13485 1-552)
